Test results from patent US20250034527A1.
Results are given in words; binding and its absence hold for the method and conditions named. Some results given as binding are weak or reduced against the parent protein; the word gives no strength.

Sequences of proteins named here, by UniProt entry; tags and fusion partners are left off. Residues count along the entry.
UniProt Q9ULV1, residues 40-161: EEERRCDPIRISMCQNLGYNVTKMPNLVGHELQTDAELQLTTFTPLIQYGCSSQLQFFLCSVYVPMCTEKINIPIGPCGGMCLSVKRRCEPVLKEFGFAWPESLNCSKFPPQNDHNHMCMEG

Target: Fzd4 CRD (human) (UniProt Q9ULV1)
Experiment: summary statement of specificity in Example 1

binding: binds
B1: 4AF30 (designed binder)
chain: SELGKRLIRAALDGNKDRVKDLIENGADVNASLMSGTTPLYAAAMNGHKEVVKLLISKGADVNAQSVAGSTPLVAAANFGHNEVVKLLISKGADVNAVTAFGVTPLHAAAADGHKEVVKLLISKGADVNAKAGRGMTPLHIAAFRGHKEVVKLLISKGADLNTSAKDGATPLDMARESGNEEVVKLLEKQLE
